Measured values reported in the supplement of paper PMC4604168 (melanoma cell lines).
The other results are listed elsewhere or left out. Repeats are few or missing, and single values can be far off.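 Cells were imaged in 1,536-well plates, and nuclei stained with an antibody against cleaved PARP were counted against all DNA-stained nuclei to give the apoptosis fraction. Screening doses were chosen to leave most cells alive, and resting and induced cleaved-PARP levels differ strongly between cell lines.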

Tests used:
Experiment in all cases: cleaved PARP positive nuclei fraction relative to DMSO control; melanoma cells; higher = more apoptosis
Details in all cases: library dose: low library concentration; 72 h
501Mel = tested on: 501Mel
A101D = tested on: A101D
A2058 = tested on: A2058
A375 = tested on: A375
C32 = tested on: C32
CBRC008 = tested on: CBRC008 (line from a melanoma biopsy)
CBRC013 = tested on: CBRC013 (line from a melanoma biopsy)
CBRC014 = tested on: CBRC014 (line from a melanoma biopsy)
CBRC016 = tested on: CBRC016 (line from a melanoma biopsy)
CBRC017 = tested on: CBRC017 (line from a melanoma biopsy)

| SMILES | cleaved PARP positive nuclei fraction (501Mel) [%] | cleaved PARP positive nuclei fraction (A101D) [%] | cleaved PARP positive nuclei fraction (A2058) [%] | cleaved PARP positive nuclei fraction (A375) [%] | cleaved PARP positive nuclei fraction (C32) [%] | cleaved PARP positive nuclei fraction (CBRC008) [%] | cleaved PARP positive nuclei fraction (CBRC013) [%] | cleaved PARP positive nuclei fraction (CBRC014) [%] | cleaved PARP positive nuclei fraction (CBRC016) [%] | cleaved PARP positive nuclei fraction (CBRC017) [%] |
| --- | --- | --- | --- | --- | --- | --- | --- | --- | --- | --- |
| N.N.[Cl][Pt][Cl] [cisplatin] + CC1(C)NC(=O)N(c2ccc([N+](=O)[O-])c(C(F)(F)F)c2)C1=O [nilutamide] (first compound 1.6 µM, partner dose 1 µM) | 171 | 188 | 136 | 150 | 130 | 336 | 86.2 | 106 | 48.8 | 126 |
| C[C@]12O[C@H](C[C@]1(O)CO)n1c3ccccc3c3c4c(c5c6ccccc6n2c5c31)CNC4=O [Lestaurtinib] + CC(C)(C)c1cnc(CSc2cnc(NC(=O)C3CCNCC3)s2)o1 [SNS-032] (first compound 0.004 µM, partner dose 0.01 µM) | 92.1 | 87.7 | 75.7 | 46.9 | 131 | 127 | 143 | 90.6 | 48 | 70.9 |
| C[C@]12O[C@H](C[C@]1(O)CO)n1c3ccccc3c3c4c(c5c6ccccc6n2c5c31)CNC4=O [Lestaurtinib] + C[C@@H]1CCN(C(=O)CC#N)C[C@@H]1N(C)c1ncnc2[nH]ccc12 [CP690550] (first compound 0.004 µM, partner dose 1 µM) | 79.1 | 71.9 | 178 | 246 | 31.4 | 46.4 | 105 | 78.4 | 31.3 | 103 |
| C[As](C)SC[C@H](NC(=O)CC[C@H](N)C(=O)O)C(=O)NCC(=O)O [Darinaparsin] + O=C(O)c1ccc(-c2c[nH]c3ncc(-c4ccccc4)cc23)cc1C1CCCC1 [GSK650394] (first compound 0.4 µM, partner dose 0.16 µM) | 186 | 82.4 | 140 | 173 | 51.3 | 112 | 128 | 83.8 | 67.8 | 89.2 |
| N.N.[Cl][Pt][Cl] [cisplatin] + O=C(CCCCCCC(=O)Nc1ccccc1)NO [vorinostat] (first compound 1.6 µM, partner dose 0.08 µM) | 173 | 55 | 98.4 | 89.1 | 118 | 86.6 | 80.9 | 91.1 | 218 | 91.9 |
| N.N.[Cl][Pt][Cl] [cisplatin] + COc1cc2c(Oc3ccc4[nH]c(C)cc4c3F)ncnc2cc1OCCCN1CCCC1 [cediranib] (first compound 1.6 µM, partner dose 0.4 µM) | 88.4 | 82.8 | 117 | 81.4 | 172 | 127 | 55.4 | 101 | 119 | 114 |
| C[C@]12O[C@H](C[C@]1(O)CO)n1c3ccccc3c3c4c(c5c6ccccc6n2c5c31)CNC4=O [Lestaurtinib] + CC1(C)NC(=O)N(c2ccc([N+](=O)[O-])c(C(F)(F)F)c2)C1=O [nilutamide] (first compound 0.004 µM, partner dose 1 µM) | 86.8 | 174 | 87 | 76.8 | 24.7 | 140 | 81 | 78.6 | 32 | 70 |
| C[C@]12O[C@H](C[C@]1(O)CO)n1c3ccccc3c3c4c(c5c6ccccc6n2c5c31)CNC4=O [Lestaurtinib] + O=C(O)c1ccc(-c2c[nH]c3ncc(-c4ccccc4)cc23)cc1C1CCCC1 [GSK650394] (first compound 0.004 µM, partner dose 0.16 µM) | 86.9 | 360 | 167 | 89.3 | 53.9 | 198 | 111 | 98.8 | 177 | 112 |
| N.N.[Cl][Pt][Cl] [cisplatin] + CC(C)(C)c1cnc(CSc2cnc(NC(=O)C3CCNCC3)s2)o1 [SNS-032] (first compound 1.6 µM, partner dose 0.01 µM) | 100 | 71.5 | 144 | 116 | 104 | 62.5 | 137 | 87.9 | 119 | 217 |
| C[As](C)SC[C@H](NC(=O)CC[C@H](N)C(=O)O)C(=O)NCC(=O)O [Darinaparsin] + CC(C)(C)c1cnc(CSc2cnc(NC(=O)C3CCNCC3)s2)o1 [SNS-032] (first compound 0.4 µM, partner dose 0.01 µM) | 147 | 83.9 | 155 | 108 | 25.7 | 215 | 94.9 | 83.4 | 140 | 78.2 |
| C[C@]12O[C@H](C[C@]1(O)CO)n1c3ccccc3c3c4c(c5c6ccccc6n2c5c31)CNC4=O [Lestaurtinib] + Cn1cncc1[C@@](N)(c1ccc(Cl)cc1)c1ccc2c(c1)c(-c1cccc(Cl)c1)cc(=O)n2C [tipifarnib] (first compound 0.004 µM, partner dose 0.01 µM) | 89.4 | 200 | 138 | 37.5 | 44.5 | 312 | 120 | 88.2 | 127 | 95.1 |
| C[As](C)SC[C@H](NC(=O)CC[C@H](N)C(=O)O)C(=O)NCC(=O)O [Darinaparsin] + O=C(Nc1cccc(Cl)c1)Nc1ncc(CCNc2ncnc3ccsc23)s1 [SNS314] (first compound 0.4 µM, partner dose 0.0008 µM) | 92.3 | 76.8 | 97.9 | 46.2 | 251 | 53.3 | 94 | 86.3 | 104 | 195 |
| Cn1cc(C2=C(c3cn(C4CCN(Cc5ccccn5)CC4)c4ccccc34)C(=O)NC2=O)c2ccccc21 [Enzastaurin] + Cc1cc(N2CCOCC2)cc2[nH]c(-c3c(NC[C@@H](O)c4cccc(Cl)c4)cc[nH]c3=O)nc12 [BMS536924] (first compound 0.8 µM, partner dose 0.2 µM) | 90.3 | 36.1 | 63.9 | 253 | 82.3 | 101 | 104 | 91.2 | 69.8 | 98.4 |
| N.N.[Cl][Pt][Cl] [cisplatin] + CN(NC(=O)CC(=O)NN(C)C(=S)c1ccccc1)C(=S)c1ccccc1 [STA4783] (first compound 1.6 µM, partner dose 0.006 µM) | 76.2 | 270 | 28.7 | 54.8 | 81.1 | 236 | 77.3 | 101 | 112 | 98.8 |
| C[As](C)SC[C@H](NC(=O)CC[C@H](N)C(=O)O)C(=O)NCC(=O)O [Darinaparsin] + C=CCn1c(=O)c2cnc(Nc3ccc(N4CCN(C)CC4)cc3)nc2n1-c1cccc(C(C)(C)O)n1 [MK1775] (first compound 0.4 µM, partner dose 0.02 µM) | 96.3 | 60.7 | 33.9 | 673 | 62.2 | 47.5 | 99.6 | 87.2 | 112 | 93.2 |
| N.N.[Cl][Pt][Cl] [cisplatin] + NC(=O)Nc1cc(-c2cccc(F)c2)sc1C(=O)N[C@H]1CCCNC1 [AZD7762] (first compound 1.6 µM, partner dose 0.02 µM) | 87.3 | 97.2 | 65 | 266 | 89.8 | 121 | 97.4 | 96.5 | 257 | 99 |
| N.N.[Cl][Pt][Cl] [cisplatin] + Cn1cncc1[C@@](N)(c1ccc(Cl)cc1)c1ccc2c(c1)c(-c1cccc(Cl)c1)cc(=O)n2C [tipifarnib] (first compound 1.6 µM, partner dose 0.01 µM) | 78.5 | 288 | 68 | 56.4 | 159 | 110 | 107 | 128 | 68.8 | 123 |
| C[As](C)SC[C@H](NC(=O)CC[C@H](N)C(=O)O)C(=O)NCC(=O)O [Darinaparsin] + COc1cc2c(Oc3ccc4[nH]c(C)cc4c3F)ncnc2cc1OCCCN1CCCC1 [cediranib] (first compound 0.4 µM, partner dose 0.4 µM) | 96.9 | 65.8 | 60.9 | 42.9 | 111 | 56.1 | 140 | 70 | 26.8 | 72.9 |
| C[C@]12O[C@H](C[C@]1(O)CO)n1c3ccccc3c3c4c(c5c6ccccc6n2c5c31)CNC4=O [Lestaurtinib] + CN(C)S(=O)(=O)c1ccc2c(c1)/C(=C/c1cc3c([nH]1)CCCC3)C(=O)N2 [SU6656] (first compound 0.004 µM, partner dose 0.4 µM) | 231 | 106 | 96.2 | 41.9 | 158 | 140 | 148 | 82.9 | 61.2 | 89.1 |
| C[As](C)SC[C@H](NC(=O)CC[C@H](N)C(=O)O)C(=O)NCC(=O)O [Darinaparsin] + OCCn1cc(-c2cnc3nnn(Cc4ccc5ncccc5c4)c3n2)cn1 [PF04217903] (first compound 0.4 µM, partner dose 1 µM) | 98.2 | 37.1 | 25.3 | 105 | 169 | 93.9 | 100 | 75.9 | 24 | 138 |
| C[C@]12O[C@H](C[C@]1(O)CO)n1c3ccccc3c3c4c(c5c6ccccc6n2c5c31)CNC4=O [Lestaurtinib] + Cc1ccc(NC(=O)c2cccc(N(C)C)c2)cc1NC(=O)c1ccc(O)cc1 [ZM336372] (first compound 0.004 µM, partner dose 2 µM) | 45.3 | 96.4 | 29.8 | 121 | 98.9 | 114 | 92.9 | 93.4 | 135 | 123 |

Shown comma-delimited: entries from further up.
SMILES,cleaved PARP positive nuclei fraction (501Mel) [%],cleaved PARP positive nuclei fraction (A101D) [%],cleaved PARP positive nuclei fraction (A2058) [%],cleaved PARP positive nuclei fraction (A375) [%],cleaved PARP positive nuclei fraction (C32) [%],cleaved PARP positive nuclei fraction (CBRC008) [%],cleaved PARP positive nuclei fraction (CBRC013) [%],cleaved PARP positive nuclei fraction (CBRC014) [%],cleaved PARP positive nuclei fraction (CBRC016) [%],cleaved PARP positive nuclei fraction (CBRC017) [%]
"C[C@]12O[C@H](C[C@]1(O)CO)n1c3ccccc3c3c4c(c5c6ccccc6n2c5c31)CNC4=O [Lestaurtinib] + Cn1cncc1[C@@](N)(c1ccc(Cl)cc1)c1ccc2c(c1)c(-c1cccc(Cl)c1)cc(=O)n2C [tipifarnib] (first compound 0.004 µM, partner dose 0.01 µM)",89.4,200,138,37.5,44.5,312,120,88.2,127,95.1
"C[As](C)SC[C@H](NC(=O)CC[C@H](N)C(=O)O)C(=O)NCC(=O)O [Darinaparsin] + COc1cc2c(Oc3ccc4[nH]c(C)cc4c3F)ncnc2cc1OCCCN1CCCC1 [cediranib] (first compound 0.4 µM, partner dose 0.4 µM)",96.9,65.8,60.9,42.9,111,56.1,140,70,26.8,72.9
"C[C@]12O[C@H](C[C@]1(O)CO)n1c3ccccc3c3c4c(c5c6ccccc6n2c5c31)CNC4=O [Lestaurtinib] + CN(C)S(=O)(=O)c1ccc2c(c1)/C(=C/c1cc3c([nH]1)CCCC3)C(=O)N2 [SU6656] (first compound 0.004 µM, partner dose 0.4 µM)",231,106,96.2,41.9,158,140,148,82.9,61.2,89.1
"C[C@]12O[C@H](C[C@]1(O)CO)n1c3ccccc3c3c4c(c5c6ccccc6n2c5c31)CNC4=O [Lestaurtinib] + Cc1ccc(NC(=O)c2cccc(N(C)C)c2)cc1NC(=O)c1ccc(O)cc1 [ZM336372] (first compound 0.004 µM, partner dose 2 µM)",45.3,96.4,29.8,121,98.9,114,92.9,93.4,135,123
